Results from patent US20260167829A1, “USES OF DIAZIRINES” (Nanyang Technological University, priority 2022, published 2026).

Columns and labels:
[1] = Photorheology of PEGDA575 in PBS with 1% photo-initiator; assay type: physicochemical; details: for G′ value: stable or final value
[2] = Photo-DSC of PEGDA575 with 1% photo-initiator; assay type: physicochemical; details: 365 nm, 25° C.
[3] = 20% PEGDA575 in PBS, 1% initiator, 365 nm
[4] = 50% PEGDA575 in PBS, 1% initiator, 365 nm

Compound	G′ value [1, 3]	G′ value [1, 4]	heat flow ([2]; 100% PEGDA575, 1% initiator)	curing activity on the rheometer ([1]; 10% PEGDA575 in PBS)	G′ peak ([1]; 20% PEGDA575 in PBS, 1% initiator, 365 nm, peak before decrease)	heat flow ([2]; 20% PEGDA575 in PBS, 1% initiator)
O=C(O)c1ccc(C2(C(F)(F)F)N=N2)cc1 [DzCOOH, 4-[3-(Trifluoromethyl)-3H-diazirin-3-yl]benzoic acid]	10^5 Pa	10^4 Pa	~75 mW	–	–	–
OCc1ccc(C2(C(F)(F)F)N=N2)cc1 [DzOH, 4-[3-(Trifluoromethyl)-3H-diazirin-3-yl]benzyl alcohol]	–	~10^6 Pa	~45 mW	no curing activity observed	–	–
Cc1cc(C)c(C(=O)P(=O)(c2ccccc2)c2ccccc2)c(C)c1 [TPO, Diphenyl(2,4,6-trimethylbenzoyl)phosphine oxide, reference compound]	10^4 Pa	10^4 Pa	130 mW	–	10^5 Pa	around 18 mW
